Measurements as given in patent US20030037385A1, “Hair colouring compositions” (Unilever Home & Personal Care USA, Division of Conopco, Inc., priority 2001, published 2003).

Legend:
[1] = Incorporation of TRC into hair fibres (washed fibres, fluorimetry after hair solubilisation); conditions: 24 h room temperature
Protocol: (§1) In each experiment, unpigmented hair fibres were used as clippings of 2-5 mm in length. Hair fibres from a greying male were obtained and the unpigmented hairs manually separated from the pigmented. Only unpigmented hairs were used in these studies. Aliquots of approximately 5 mg of dry unpigmented hair fibres with an average length of 5 mm were placed into Eppendorf tubes. 50 μl of assay mixture containing 100 mM Tris.HCl pH 8.5, 5 mM CaCl2, 10 mM DTT, 0.5% (w/v) Triton X-100 was added to each sample. The assay mixture was made up fresh each time from 1 M stocks of Tris pH8.5, CaCl2 (both stored at room temperature) and DTT (stored at −20° C.) and 10% Triton X-100 (stored at 4° C.). 50 μl of 2 or 4 mM Texas Red-cadaverine (Molecular Probes) (TRC; 10 mM stock in DMSO stored at −20° C.) was then added to each sample to give a final concentration of 2 mM of TRC. After 10 min of incubation at room temperature, the assay mixture was removed and the fibres were rinsed briefly in 1 ml of 0.1% Triton X-100. Hair fibres were recovered by centrifugation at 13,000 rpm for 10 seconds and the wash solution was removed. The fibres were then spread over the inner surface of the tube and left to dry at room temperature for 1 hour. Following the fibre drying step, 50μl of water was added to the bottom of each tube to maintain humidity, and the tubes were sealed and incubated at room temperature for 24 hours from the time the assay solutions were applied. The aim of this 24-hour post incubation was to allow an additional incorporation of TRC within the fibre. Once this incubation had been completed, fibres were washed three times in 1 ml of 0.1% Triton-X100 for 20 min at 95° C. (total wash time: 60 min). In some experiments one set of samples was not washed in order to quantitate the penetration of TRC within the fibre. At this step of the experiment photographs were taken in order to compare the intensity of the colour change by human eye between the different conditions tested. Fibres were then solubilised by the addition of 1 ml of 90% soluene and incubated at room temperature until complete solubilization had occurred (48 hours) in parallel with a standard curve of TRC (0.1-5 μM, final concentration). The penetration or incorporation of TRC into hair fibres was measured by fluorimetry at 580 nm excitation and 598 nm emission after dilution of the samples 2-fold with 90% soluene. TRC (2 mM final) was applied for 10 minutes from: (i) the assay mixture described above; (ii) water; (iii) Tris (100 mM final); (iv) Triton X-100 (0.5% final); (v) CaCl2 (5 mM final); and (vi) DTT (10 mM). Fibres were then rapidly rinsed and incubated at room temperature for 24 hours. Penetration and incorporation of TRC into the fibres were measured by fluorimetry after hair solubilisation. The effect of pH on penetration and incorporation of TRC were also studied. TRC (2 mM final) was applied for 10 minutes from: (i) assay mixture as described above; (ii) Tris (100 mM final); (iii) Tris plus 10 mM DTT; or(iv) water. Fibres were then rapidly rinsed and incubated at room temperature for 24 hours. Penetration and incorporation were measured by fluorimetry after hair solubilisation.

[2] = Penetration of TRC into hair fibres (unwashed fibres, fluorimetry after hair solubilisation); conditions: 24 h room temperature
Protocol: as §1

[3] = Example 1, TRC 2 mM final applied 10 min from Assay Mixture (100 mM Tris.HCl pH 8.5, 5 mM CaCl2, 10 mM DTT, 0.5% Triton X-100)
[4] = Example 1, TRC 2 mM final applied 10 min from CaCl2 (5 mM final)
[5] = Example 1, TRC 2 mM final applied 10 min from DTT (10 mM)
[6] = Example 1, TRC 2 mM final applied 10 min from Tris (100 mM final)
[7] = Example 1, TRC 2 mM final applied 10 min from Triton X-100 (0.5% final)
[8] = Example 1, TRC 2 mM final applied 10 min from Water
[9] = Example 2, TRC 2 mM final applied 10 min from Assay Mixture
[10] = Example 2, TRC 2 mM final applied 10 min from Tris (100 mM final)
[11] = Example 2, TRC 2 mM final applied 10 min from Tris plus 10 mM DTT
[12] = Example 2, TRC 2 mM final applied 10 min from Water

Substance: Texas Red-cadaverine [TRC]
- Incorporation [1, 3]: 730 pmol/mg
- Incorporation [1, 4]: 10 pmol/mg
- Incorporation [1, 5]: 60 pmol/mg
- Incorporation [1, 6]: 70 pmol/mg
- Incorporation [1, 7]: 10 pmol/mg
- Incorporation [1, 8]: 40 pmol/mg
- Incorporation [1, 9]: 450 pmol/mg
- Incorporation [1, 10]: 120 pmol/mg
- Incorporation [1, 11]: 1,300 pmol/mg
- Incorporation [1, 12]: 220 pmol/mg
- Penetration [2, 3]: 11,000 pml/mg
- Penetration [2, 4]: 1,500 pml/mg
- Penetration [2, 5]: 3,750 pml/mg
- Penetration [2, 6]: 5,500 pml/mg
- Penetration [2, 7]: 1,500 pml/mg
- Penetration [2, 8]: 3,500 pml/mg
- Penetration [2, 9]: 7,500 pml/mg
- Penetration [2, 10]: 4,000 pml/mg
- Penetration [2, 11]: 19,000 pml/mg
- Penetration [2, 12]: 3,500 pml/mg
